# In article PMC8571373:
# These are yes or no findings as the source states them, for the method shown. In cells and extracts the contact can be indirect. Some binding calls cover weakened binding; strength is not graded here.
# Key:
# [1] = target: EGFR (epidermal growth factor receptor, ErbB-1/HER-1), in PLC/PRF/5-STEAP3 cells (human (endogenous in PLC/PRF/5)) (UniProt P00533); test: co-IP; cell lysates (PLC/PRF/5-STEAP3; HEK293) incubated with primary antibodies overnight at 4 °C, Crosslink Magnetic IP/Co-IP Kit, then western blot
# [2] = target: EGFR (epidermal growth factor receptor, ErbB-1/HER-1), in HEK293 cells (human (endogenous in HEK293)) (UniProt P00533); test: as above
Binder,binding [1],binding [2]
"STEAP3 (Six-transmembrane epithelial antigen of the prostate 3), stably overexpressed in PLC/PRF/5-STEAP3 cells (protein, UniProt Q658P3 1-488) MPEEMDKPLISLHLVDSDSSLAKVPDEAPKVGILGSGDFARSLATRLVGSGFKVVVGSRNPKRTARLFPSAAQVTFQEEAVSSPEVIFVAVFREHYSSLCSLSDQLAGKILVDVSNPTEQEHLQHRESNAEYLASLFPTCTVVKAFNVISAWTLQAGPRDGNRQVPICGDQPEAKRAVSEMALAMGFMPVDMGSLASAWEVEAMPLRLLPAWKVPTLLALGLFVCFYAYNFVRDVLQPYVQESQNKFFKLPVSVVNTTLPCVAYVLLSLVYLPGVLAAALQLRRGTKYQRFPDWLDHWLQHRKQIGLLSFFCAALHALYSFCLPLRRAHRYDLVNLAVKQVLANKSHLWVEEEVWRMEIYLSLGVLALGTLSLLAVTSLPSIANSLNWREFSFVQSSLGFVALVLSTLHTLTYGWTRAFEESRYKFYLPPTFTLTLLVPCVVILAKALFLLPCISRRLARIRRGWERESTIKFTLPTDHALAEKTSHV",binds,
"STEAP3 in HEK293 cells (protein, UniProt Q658P3 1-488) MPEEMDKPLISLHLVDSDSSLAKVPDEAPKVGILGSGDFARSLATRLVGSGFKVVVGSRNPKRTARLFPSAAQVTFQEEAVSSPEVIFVAVFREHYSSLCSLSDQLAGKILVDVSNPTEQEHLQHRESNAEYLASLFPTCTVVKAFNVISAWTLQAGPRDGNRQVPICGDQPEAKRAVSEMALAMGFMPVDMGSLASAWEVEAMPLRLLPAWKVPTLLALGLFVCFYAYNFVRDVLQPYVQESQNKFFKLPVSVVNTTLPCVAYVLLSLVYLPGVLAAALQLRRGTKYQRFPDWLDHWLQHRKQIGLLSFFCAALHALYSFCLPLRRAHRYDLVNLAVKQVLANKSHLWVEEEVWRMEIYLSLGVLALGTLSLLAVTSLPSIANSLNWREFSFVQSSLGFVALVLSTLHTLTYGWTRAFEESRYKFYLPPTFTLTLLVPCVVILAKALFLLPCISRRLARIRRGWERESTIKFTLPTDHALAEKTSHV",,binds
